Assay results published in paper PMC7039973.
No constants are given. Whether binding was seen depends on the method and setting. In cells and extracts the contact can be indirect. A yes stands for co-enrichment or nearness to the bait. Other partners may have been found. Values belong to the binder of their own block, whether it stands above or below them.

Target: T1, Protein S100-A16, overexpressed from lentivirus (human) (UniProt Q96FQ6)
T1 sequence: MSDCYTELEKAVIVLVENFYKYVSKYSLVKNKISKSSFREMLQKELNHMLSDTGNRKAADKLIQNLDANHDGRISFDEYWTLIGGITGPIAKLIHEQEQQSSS
Assay: affinity purification with mass spectrometry; HK-2 cells stably overexpressing S100A16 or scramble-transduced, lysed with RIPA; lysates immunoprecipitated with anti-S100A16 antibody; LC-MS/MS (LTQ-Orbitrap)

binding: binds
B1: EF-hand domain-containing protein D2 (protein, UniProt Q96C19 1-240)
chain: MATDELATKLSRRLQMEGEGGGETPEQPGLNGAAAAAAGAPDEAAEALGSADCELSAKLLRRADLNQGIGEPQSPSRRVFNPYTEFKEFSRKQIKDMEKMFKQYDAGRDGFIDLMELKLMMEKLGAPQTHLGLKNMIKEVDEDFDSKLSFREFLLIFRKAAAGELQEDSGLCVLARLSEIDVSSEGVKGAKSFFEAKVQAINVSSRFEEEIKAEQEERKKQAEEMKQRKAAFKELQSTFK

binding: binds
B2: Isoform 4 of Protein MRVI1 (protein, UniProt Q9Y6F6-4 1-903)
chain: MGMDLTCPFGISPACGAQASWSIFGADAAEVPGTRGHSQQEAAMPHIPEDEEPPGEPQAAQSPAGQGPPAAGVSCSPTPTIVLTGDATSPEGETDKNLANRVHSPHKRLSHRHLKVSTASLTSVDPAGHIIDLVNDQLPDISISEEDKKKNLALLEEAKLVSERFLTRRGRKSRSSPGDSPSAVSPNLSPSASPTSSRSNSLTVPTPPGLDVCSGPPSPLPGAPPQKGDEADVSSPHPGEPNVPKGLADRKQNDQRKVSQGRLAPRPPPVEKSKEIAIEQKENFDPLQYPETTPKGLAPVTNSSGKMALNSPQPGPVESELGKQLLKTGWEGSPLPRSPTQDAAGVGPPASQGRGPAGEPMGPEAGSKAELPPTVSRPPLLRGLSWDSGPEEPGPRLQKVLAKLPLAEEEKRFAGKAGGKLAKAPGLKDFQIQVQPVRMQKLTKLREEHILMRNQNLVGLKLPDLSEAAEQEKGLPSELSPAIEEEESKSGLDVMPNISDVLLRKLRVHRSLPGSAPPLTEKEVENVFVQLSLAFRNDSYTLESRINQAERERNLTEENTEKELENFKASITSSASLWHHCEHRETYQKLLEDIAVLHRLAARLSSRAEVVGAVRQEKRMSKATEVMMQYVENLKRTYEKDHAELMEFKKLANQNSSRSCGPSEDGVPRTARSMSLTLGKNMPRRRVSVAVVPKFNALNLPGQTPSSSSIPSLPALSESPNGKGSLPVTSALPALLENGKTNGDPDCEASAPALTLSCLEELSQETKARMEEEAYSKGFQEGLKKTKELQDLKEEEEEQKSESPEEPEEVEETEEEEKGPRSSKLEELVHFLQVMYPKLCQHWQVIWMMAAVMLVLTVVLGLYNSYNSCAEQADGPLGRSTCSAAQRDSWWSSGLQHEQPTEQ
